Values of other authors in patent US4661510A, “α-allenic-α-amino acids as enzyme inhibitors” (priority 1985, dated 1987).
At least one structure is not confirmed: it was looked up by name or label, or the drawing left a doubt.

Molecular target: T1, aromatic amino acid decarboxylase (Sus scrofa, UniProt P80041)
T1 sequence (P80041 1-486): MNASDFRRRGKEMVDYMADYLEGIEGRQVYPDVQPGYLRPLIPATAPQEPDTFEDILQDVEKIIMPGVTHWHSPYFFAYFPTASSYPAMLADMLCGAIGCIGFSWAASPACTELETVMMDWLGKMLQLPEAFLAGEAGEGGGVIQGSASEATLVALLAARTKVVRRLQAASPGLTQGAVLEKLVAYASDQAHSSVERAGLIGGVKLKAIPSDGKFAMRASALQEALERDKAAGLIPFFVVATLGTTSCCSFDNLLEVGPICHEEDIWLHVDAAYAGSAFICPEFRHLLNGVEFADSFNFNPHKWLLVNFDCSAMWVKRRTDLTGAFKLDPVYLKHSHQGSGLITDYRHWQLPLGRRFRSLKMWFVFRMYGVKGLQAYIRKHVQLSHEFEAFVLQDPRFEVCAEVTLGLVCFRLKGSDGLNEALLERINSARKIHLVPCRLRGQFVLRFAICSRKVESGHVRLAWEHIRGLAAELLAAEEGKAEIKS
Settings: Maycock et al; cited from earlier work

## C#CC(N)Cc1ccc(O)c(O)c1 (stereo not drawn) [α-ethynyl-dopamine]
  inactivation of aromatic amino acid decarboxylase: slow-time dependent inactivation
